We go through one sequence from PMC11967919.

The test system of the data set is His-GhLPF1 (R2R3 MYB) (Gossypium hirsutum). Nature of the data set: EMSA. The note with it: biotin probe, 50x and 100x unlabeled cold probe used as competitor; Beyotime chemiluminescent EMSA kit (GS009), 6% native PAGE; pH and temperature not stated; recombinant protein; label: biotin (kit-labelled).

The exact form of at least one protein or probe is not confirmed.

Turning to “CAATTCACATCAACTCAATGCCTTTATATAACAGCTCTCAAAGGAGCAGGCTCCTT (double strand) [proHB6-probe1]”, the binding result is on record as “binds”.
